According to PMC8629392:
No constants are given. Whether binding was seen depends on the method and setting. In cells and extracts the contact can be indirect.

Amino acid sequences for entries named in this document (tags omitted). Residues count along the entry.
UniProt O91087: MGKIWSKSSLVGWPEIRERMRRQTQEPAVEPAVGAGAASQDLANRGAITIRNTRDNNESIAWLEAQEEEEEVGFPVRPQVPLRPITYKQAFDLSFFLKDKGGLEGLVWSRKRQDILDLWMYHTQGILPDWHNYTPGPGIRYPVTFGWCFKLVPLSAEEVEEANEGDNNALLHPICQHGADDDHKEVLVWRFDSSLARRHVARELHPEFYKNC
UniProt P08631, residues 22-526: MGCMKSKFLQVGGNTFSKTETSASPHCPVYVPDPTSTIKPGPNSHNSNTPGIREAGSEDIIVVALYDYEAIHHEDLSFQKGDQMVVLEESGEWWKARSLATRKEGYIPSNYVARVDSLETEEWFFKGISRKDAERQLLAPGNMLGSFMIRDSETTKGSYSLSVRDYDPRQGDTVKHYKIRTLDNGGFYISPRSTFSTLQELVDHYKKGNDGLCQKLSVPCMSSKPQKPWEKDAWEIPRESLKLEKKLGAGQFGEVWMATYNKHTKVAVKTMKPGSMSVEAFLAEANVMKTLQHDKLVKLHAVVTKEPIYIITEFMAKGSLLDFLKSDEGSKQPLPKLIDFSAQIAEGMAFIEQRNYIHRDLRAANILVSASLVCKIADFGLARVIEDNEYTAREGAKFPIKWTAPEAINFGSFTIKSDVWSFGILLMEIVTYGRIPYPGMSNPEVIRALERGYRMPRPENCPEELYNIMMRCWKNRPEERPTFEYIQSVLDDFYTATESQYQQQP

Biological target: HIV-1 N YBF30 Nef, wild type, Myc-tagged (HIV-1 group N, strain YBF30) (UniProt O91087)
Experiment: co-IP; HEK293 cells co-transfected with Myc-tagged Nef and biotin acceptor domain-tagged Hck-p59; lysates subjected to anti-Myc immunoprecipitation, Hck detected in the immune complexes by Western blotting with labeled streptavidin

## Human Hck p59, wild type, with C-terminal biotin acceptor domain (from UniProt P08631-2 1-505) (enzyme)
  binding: no binding
